# Reference: PubChem BioAssay AID270 (DTP/NCI, 2004)
# The list does not hold the whole screen: it is rich in T/C values a quarter to a half above the control, in often repeated tests (any T/C) and in doses without a T/C. Further doses and runs are listed elsewhere. T/C: endpoint of the treated group in % of that of the vehicle group. Some doses have a count of surviving animals in place of a T/C: the source holds a T/C of zero for them, seemingly a mark for toxic or unscored doses. Some survivor counts are full or nearly so, which does not show that the dose was tolerated: survival well below the control is almost never listed, so the zero probably covers shortened survival too. Survivors were counted at the toxicity check, usually on the fifth day, unless a day is given; later deaths do not show. Schedule codes are those of the source, taken here to give the interval after Q, in days (D) or hours (H), and the number of doses after X. Some doses were run more than once; the values are given in rising order. For survival time, the PubChem record calls one and a half times the control and up active, and a quarter to a half above the control has no call in these data; cut-offs in other NCI protocols can differ.
# System: BDF1 mice, s.c. Lewis lung carcinoma, T/C %
# Test: NCI In Vivo Anticancer Drug Screen. Data for tumor model Lewis Lung Carcinoma (subcutaneous) in B6D2F1 (BDF1) mice
# Settings: T/C endpoint: median survival time, higher T/C = longer survival
# How it was run: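 The value reflects a ratio in which the treated cohort's survival time or tumour size is compared against mice receiving only vehicle.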
smiles,measurement,setting,value
CC1CCC(NC(=O)N(CCCl)N=O)CC1 (configuration not stated),T/C,"dose: 1.0 mg/kg/injection, schedule: Q01DX009 (ip), vehicle: saline + alcohol, evaluated on day 45",112 % of control
same,T/C,"dose: 1.0 mg/kg/injection, schedule: Q01DX009 (ip), vehicle: saline + alcohol, evaluated on day 60",96 and 109 % of control
same,T/C,"dose: 1.0 mg/kg/injection, schedule: Q01DX009 (ip), vehicle: saline + alcohol, evaluated on day 70",92 % of control
same,survivor count,"dose: 2.0 mg/kg/injection, schedule: Q01DX001 (ip), vehicle: Klucel (hydroxypropylcellulose) (HPC)",10 of 10
same,T/C,"dose: 2.0 mg/kg/injection, schedule: Q01DX009 (ip), vehicle: saline + alcohol, evaluated on day 45",112 % of control
same,T/C,"dose: 2.0 mg/kg/injection, schedule: Q01DX009 (ip), vehicle: saline + alcohol, evaluated on day 60",102 and 114 % of control
same,survivor count,"dose: 2.0 mg/kg/injection, schedule: Q01DX009 (ip), vehicle: saline + alcohol",10 of 10
same,T/C,"dose: 2.0 mg/kg/injection, schedule: Q02DX009 (ip), vehicle: saline + alcohol",129 % of control
same,survivor count,"dose: 4.0 mg/kg/injection, schedule: Q01DX001 (ip), vehicle: saline + alcohol",10 of 10
same,survivor count,"dose: 4.0 mg/kg/injection, schedule: Q01DX009 (ip), vehicle: Klucel (hydroxypropylcellulose) (HPC)",10 of 10
same,T/C,"dose: 4.0 mg/kg/injection, schedule: Q01DX009 (ip), vehicle: saline + alcohol, evaluated on day 45",104 % of control
same,T/C,"dose: 4.0 mg/kg/injection, schedule: Q01DX009 (ip), vehicle: saline + alcohol, evaluated on day 60",126 and 133 % of control
same,survivor count,"dose: 4.0 mg/kg/injection, schedule: Q01DX009 (ip), vehicle: saline + alcohol",10 of 10
same,T/C,"dose: 4.0 mg/kg/injection, schedule: Q01DX009 (ip), vehicle: saline with Tween-80",135 % of control
same,T/C,"dose: 5.0 mg/kg/injection, schedule: Q04DX003 (ip), vehicle: other",136 % of control
same,T/C,"dose: 7.5 mg/kg/injection, schedule: Q01DX001 (ip), vehicle: Klucel (hydroxypropylcellulose) (HPC)",127 % of control
same,T/C,"dose: 8.0 mg/kg/injection, schedule: Q01DX009 (ip), vehicle: saline + alcohol, evaluated on day 45",137 % of control
same,T/C,"dose: 8.0 mg/kg/injection, schedule: Q01DX009 (ip), vehicle: saline + alcohol, evaluated on day 60",100 and 133 % of control
same,T/C,"dose: 8.0 mg/kg/injection, schedule: Q01DX009 (ip), vehicle: saline + alcohol, evaluated on day 70",99 % of control
same,T/C,"dose: 8.0 mg/kg/injection, schedule: Q01DX009 (ip), vehicle: saline with Tween-80",137 and 149 % of control
same,T/C,"dose: 8.0 mg/kg/injection, schedule: Q02DX009 (ip), vehicle: saline + alcohol",125 % of control
same,T/C,"dose: 8.6 mg/kg/injection, schedule: Q04DX004 (ip), vehicle: saline with Tween-80",138 % of control
same,T/C,"dose: 10.0 mg/kg/injection, schedule: Q01DX005 (ip), vehicle: saline with Tween-80",141 % of control
same,T/C,"dose: 15.0 mg/kg/injection, schedule: Q01DX001 (ip), vehicle: Klucel (hydroxypropylcellulose) (HPC)",131 % of control
same,T/C,"dose: 15.0 mg/kg/injection, schedule: Q01DX001 (ip), vehicle: saline with Tween-80",132 % of control
same,survivor count,"dose: 16.0 mg/kg/injection, schedule: Q01DX001 (ip), vehicle: saline + alcohol",10 of 10
same,T/C,"dose: 16.0 mg/kg/injection, schedule: Q01DX001 (ip), vehicle: saline with Tween-80",140 % of control
same,survivor count,"dose: 16.0 mg/kg/injection, schedule: Q01DX005 (ip), vehicle: saline + alcohol",9 of 10
same,survivor count,"dose: 16.0 mg/kg/injection, schedule: Q01DX009 (ip), vehicle: Klucel (hydroxypropylcellulose) (HPC)",10 of 10
same,survivor count,"dose: 16.0 mg/kg/injection, schedule: Q01DX009 (ip), vehicle: saline with Tween-80",9 of 10 and 10 of 10
same,T/C,"dose: 18.0 mg/kg/injection, schedule: Q01DX001 (ip), vehicle: Klucel (hydroxypropylcellulose) (HPC)",141 % of control
same,T/C,"dose: 20.0 mg/kg/injection, schedule: Q01DX001 (ip), vehicle: Klucel (hydroxypropylcellulose) (HPC)",143 % of control
same,T/C,"dose: 20.0 mg/kg/injection, schedule: Q01DX001 (ip), vehicle: saline with Tween-80",143 % of control
same,survivor count,"dose: 20.0 mg/kg/injection, schedule: Q04DX003 (ip), vehicle: other",2 of 10 on day 57
same,T/C,"dose: 20.0 mg/kg/injection, schedule: Q04DX004 (ip), vehicle: saline with Tween-80, evaluated on day 13",174 % of control
same,T/C,"dose: 20.0 mg/kg/injection, schedule: Q04DX004 (ip), vehicle: saline with Tween-80, evaluated on day 77",205 % of control
same,T/C,"dose: 20.0 mg/kg/injection, schedule: Q04DX004 (ip), vehicle: saline with Tween-80, evaluated on day 84",345 % of control
same,T/C,"dose: 20.0 mg/kg/injection, schedule: Q04DX004 (ip), vehicle: saline with Tween-80, evaluated on day 101",217 % of control
same,T/C,"dose: 21.0 mg/kg/injection, schedule: Q07DX002 (ip), vehicle: saline with Tween-80, evaluated on day 80",266 % of control
same,T/C,"dose: 21.0 mg/kg/injection, schedule: Q07DX002 (ip), vehicle: saline with Tween-80, evaluated on day 84",381 % of control
same,T/C,"dose: 21.0 mg/kg/injection, schedule: Q07DX002 (ip), vehicle: saline with Tween-80, evaluated on day 101",413 % of control
same,T/C,"dose: 21.0 mg/kg/injection, schedule: Q07DX002 (ip), vehicle: saline with Tween-80, evaluated on day 119",150 % of control
same,T/C,"dose: 22.0 mg/kg/injection, schedule: Q01DX005 (ip), vehicle: saline with Tween-80",145 % of control
same,T/C,"dose: 24.0 mg/kg/injection, schedule: Q01DX001 (ip), vehicle: gum acacia, evaluated on day 15",187 % of control
same,T/C,"dose: 24.0 mg/kg/injection, schedule: Q01DX001 (ip), vehicle: gum acacia, evaluated on day 46",156 % of control
same,T/C,"dose: 24.0 mg/kg/injection, schedule: Q01DX001 (ip), vehicle: gum acacia, evaluated on day 77",216 % of control
same,T/C,"dose: 24.0 mg/kg/injection, schedule: Q01DX001 (ip), vehicle: gum acacia, evaluated on day 90",182 % of control
same,T/C,"dose: 24.0 mg/kg/injection, schedule: Q01DX001 (ip), vehicle: gum acacia, evaluated on day 136",106 % of control
same,T/C,"dose: 24.0 mg/kg/injection, schedule: Q01DX001 (ip), vehicle: saline with Tween-80, evaluated on day 12",119 and 124 % of control
same,T/C,"dose: 24.0 mg/kg/injection, schedule: Q01DX001 (ip), vehicle: saline with Tween-80, evaluated on day 52",164 % of control
same,T/C,"dose: 24.0 mg/kg/injection, schedule: Q01DX001 (ip), vehicle: saline with Tween-80, evaluated on day 54",97 % of control
same,T/C,"dose: 24.0 mg/kg/injection, schedule: Q01DX001 (ip), vehicle: saline with Tween-80, evaluated on day 90",165 % of control
same,T/C,"dose: 24.0 mg/kg/injection, schedule: Q01DX001 (ip), vehicle: saline with Tween-80, evaluated on day 92",117 % of control
same,T/C,"dose: 24.0 mg/kg/injection, schedule: Q08DX002 (ip), vehicle: saline + alcohol",125 % of control
same,T/C,"dose: 24.0 mg/kg/injection, schedule: Q12DX002 (ip), vehicle: gum acacia",145 % of control
same,T/C,"dose: 27.0 mg/kg/injection, schedule: Q07DX002 (ip), vehicle: saline with Tween-80, evaluated on day 80",194 % of control
same,T/C,"dose: 27.0 mg/kg/injection, schedule: Q07DX002 (ip), vehicle: saline with Tween-80, evaluated on day 84",381 % of control
